Assay results reported in publication PMC6988281.
These are yes or no findings as the source states them, for the method shown. In cells and extracts the contact can be indirect. These calls come from enrichment with a bait or labelling near it, and not all partners need be listed.

By UniProt entry, the sequences of proteins in these tests, tags left out.
UniProt Q9C030: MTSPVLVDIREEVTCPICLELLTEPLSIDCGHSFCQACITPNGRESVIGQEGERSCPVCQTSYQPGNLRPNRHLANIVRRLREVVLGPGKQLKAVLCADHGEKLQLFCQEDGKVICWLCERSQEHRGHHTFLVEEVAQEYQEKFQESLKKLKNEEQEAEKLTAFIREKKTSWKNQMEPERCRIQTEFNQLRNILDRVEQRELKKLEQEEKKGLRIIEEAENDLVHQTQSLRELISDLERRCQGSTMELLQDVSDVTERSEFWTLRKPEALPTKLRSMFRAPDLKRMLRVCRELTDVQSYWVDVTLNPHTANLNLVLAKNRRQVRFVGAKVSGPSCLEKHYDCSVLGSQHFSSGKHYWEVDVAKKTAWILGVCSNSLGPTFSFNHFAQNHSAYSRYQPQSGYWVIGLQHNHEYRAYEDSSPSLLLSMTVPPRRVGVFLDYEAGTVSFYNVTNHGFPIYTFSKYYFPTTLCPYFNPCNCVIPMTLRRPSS
UniProt P78543: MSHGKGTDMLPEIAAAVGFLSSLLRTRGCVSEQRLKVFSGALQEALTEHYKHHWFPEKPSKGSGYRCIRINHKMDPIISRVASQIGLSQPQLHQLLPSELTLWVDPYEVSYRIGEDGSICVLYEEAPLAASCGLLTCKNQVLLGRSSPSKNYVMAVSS

Molecular target: FLAG-tagged TRIM6 (tripartite motif-containing protein 6) (UniProt Q9C030)
Experiment: affinity purification with mass spectrometry; FLAG-TRIM6 or vector in 293T cells, RIPA lysate pre-cleared with IgG and protein A/G beads, anti-FLAG beads overnight at 4 °C, eluted with FLAG peptide, SDS-PAGE, differential bands excised and analysed by LC/MS

binding: binds
Substance: TIS21 (endogenous, 293T cells) (from UniProt P78543 1-158)
